Results published in patent US20230227572A1.
Numbering of substitutions follows the chain as printed. No constants are given. Whether binding was seen depends on the method and setting. Binding can be weak; no strength is given. One block for each binder: values may come before it.

What was measured:
[1] = target: human PVRIG protein on the cell membrane surface (human); test: flow cytometry on 293T-human PVRIG cells, AF647 goat anti-mouse IgG, percent positive cells
[2] = target: human PVRIG protein on the cell membrane surface (human); test: flow cytometry on 293T-human PVRIG cells
[3] = target: Macaca fascicularis PVRIG protein on the cell membrane surface (Macaca fascicularis); test: flow cytometry on 293T-Macaca fascicularis PVRIG cells
[4] = target: human PVRIG protein on the cell membrane surface (human); test: flow cytometry on 293T-human PVRIG cells, AF647 mouse anti-human IgG-Fc, percent positive cells

B1: Antibody 2 (antibody, V domains shown)
VH: QVQLQQSGAELTKPGASVKISCKATGYTFSTFAIDWIKQRPGHGLAWIGEILPGGNNTNYNEKFKGKATFTADTSSNTAYMHLSSLTSEDSAVYYCSTYWFAYWGQGTLVTVSA
VL: DIVMTQSPSSLSVSAGEKVTMSCKSSQSLLNSGNQKNYLAWYQQKPGQPPKLLMYGASTRESGVPDRFTGSGSGTDFTLTISSVQAEDLAVYYCQNAHSYPPAFGAGTKLELK
- binding [1]: binds
- binding [2]: binds

B2: Antibody 1 (antibody, V domains shown)
VH: B1 VH with T12M, H43P, G55I
VL: B1 VL with S22T, A103T
- binding [1]: binds
- binding [2]: binds

B3: Antibody 4-hu1 (antibody, human IgG4 S228P, kappa, V domains shown)
VH: EVQLVQSGAEVKKPGSSVKVSCKASGGTFSSFSIEWVRQAPGQGLEWMGEILPGSNSTNYNEKFKGRVTITADESTSTAYMELSSLRSEDTAVYYCARYWFAYWGQGTLVTVSS
VL: DIVMTQSPDSLAVSLGERATINCKSSQSLLNSGNQKNYLAWYQQKPGQPPKLLIYGASTRESGVPDRFSGSGSGTDFTLTISSLQAEDVAVYYCQNAHSYPPTFGQGTKLEIKR
- binding [3]: binds
- binding [4]: binds
- binding [2]: binds

B9: Antibody 4-hu4 (antibody, human IgG4 S228P, kappa, V domains shown)
VH: B3 VH with M48I, I70F, A97S, R98S
VL: B3 VL
- binding [3]: binds
- binding [4]: binds
- binding [2]: binds

B10: Antibody 4-hu2 (antibody, human IgG4 S228P, kappa, V domains shown)
VH: B3 VH with A97S, R98S
VL: B3 VL
- binding [3]: binds
- binding [4]: binds
- binding [2]: binds

B12: Antibody 4-hu3 (antibody, human IgG4 S228P, kappa, V domains shown)
VH: B3 VH with I70F, A97S, R98S
VL: B3 VL
- binding [3]: binds
- binding [4]: binds
- binding [2]: binds

B14: Antibody 3 (antibody, V domains shown)
VH: EVQLQQSGPELVKPGASMKISCKASGYSFTAYTMNWVKQSHGKNLEWIGLINPYNGGTSYNQKFKGKATLTGDKSSSTAYMELLSVTSEDSAVYFCAREGNYYGSRGDFDYWGQGTTLTVSS
VL: DILLTQSPAILSVSPGERVSFSCRASQTIVTNILWYQQRTNGSPRLLIRYASESISGIPSRFSGSGSGTDFTLSINSVESEDIAHYYCQQSHSWPFTFGSGTKLEIK
- binding [1]: binds
- binding [2]: binds

Continued, values first:

- binding [3]: binds
- binding [4]: binds
- binding [2]: binds
B4: Antibody 4-hu8 (antibody, human IgG4 S228P, kappa, V domains shown)
VH: B3 VH with G27Y, I70F, A97S, R98S
VL: B3 VL

- binding [3]: binds
- binding [4]: binds
- binding [2]: binds
B5: Antibody 4-hu6 (antibody, human IgG4 S228P, kappa, V domains shown)
VH: B3 VH with M48I, R67K, V68A, I70F, E74T, S77N, A97S, R98S
VL: B3 VL

- binding [3]: binds
- binding [4]: binds
- binding [2]: binds
B6: Antibody 4-hu5 (antibody, human IgG4 S228P, kappa, V domains shown)
VH: B3 VH with M48I, I70F, E74T, S77N, A97S, R98S
VL: B3 VL

- binding [3]: binds
- binding [2]: binds
B7: Antibody 4-hu9 (antibody, human IgG4 S228P, kappa, V domains shown)
VH: B3 VH with G27Y, M48I, I70F, A97S, R98S
VL: B3 VL

- binding [3]: binds
- binding [4]: binds
- binding [2]: binds
B8: Antibody 4-hu7 (antibody, human IgG4 S228P, kappa, V domains shown)
VH: B3 VH with G27Y, A97S, R98S
VL: B3 VL

- binding [3]: binds
- binding [4]: binds
- binding [2]: binds
B11: Antibody 4-hu11 (antibody, human IgG4 S228P, kappa, V domains shown)
VH: B3 VH with G27Y, M48I, R67K, V68A, I70F, E74T, S77N, A97S, R98S
VL: B3 VL

- binding [3]: binds
- binding [4]: binds
- binding [2]: binds
B13: Antibody 4-hu10 (antibody, human IgG4 S228P, kappa, V domains shown)
VH: B3 VH with G27Y, M48I, I70F, E74T, S77N, A97S, R98S
VL: B3 VL
